Patent US20240262904A1 (SHANGHAI MABGEEK BIOTECH, published 2024)

Chains of the proteins cited; added tags and fusions are not shown. Lines headed by an entry give the natural chain unless they say otherwise; changes in a name come on top.
UniProt Q969D9: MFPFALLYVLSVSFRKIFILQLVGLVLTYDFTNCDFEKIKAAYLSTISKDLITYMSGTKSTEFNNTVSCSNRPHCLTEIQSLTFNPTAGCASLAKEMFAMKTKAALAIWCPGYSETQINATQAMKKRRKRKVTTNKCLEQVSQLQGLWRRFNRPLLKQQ

Target: human TSLP antigen tagged with Flag (hTSLP-Flag) (human) (UniProt Q969D9)
Assay: SPR, Biacore T200

binding: binds
B1: humanized anti-human TSLP antibody 163H (antibody, human IgG1, kappa, V domains shown)
VH: EVQLVESGGGLVQPGGSLRLSCAASGFTFSSFGMHWVRQAPGKGLEWVSYISSGSSNIYYADTVKGRFTISRDNAKNSLYLQMNSLRAEDTAVYYCARDGGSRRHYYVMDYWGQGTLVTVSS
VL: EIVLTQSPATLSLSPGERATLSCKASQDVSPAVAWYQQKPGQSPRLLIYSASYRYTGVPARFSGSGSGTDFTLTISSLEPEDFAVYYCQQHYSSPFTFGQGTKLEIKR
notes: Humanized, human IgG1 constant region

Results are given in words; binding and its absence hold for the method and conditions named. Binding calls can cover weak binding; strength is not graded here.
